# Measured values from publication PMC7819943, “Rice protein-binding microarrays: a tool to detect cis-acting elements near promoter regions in rice”.
# Amino acid sequences for entries named in this document (tags omitted).
# UniProt Q0JBA9, entry or part of it: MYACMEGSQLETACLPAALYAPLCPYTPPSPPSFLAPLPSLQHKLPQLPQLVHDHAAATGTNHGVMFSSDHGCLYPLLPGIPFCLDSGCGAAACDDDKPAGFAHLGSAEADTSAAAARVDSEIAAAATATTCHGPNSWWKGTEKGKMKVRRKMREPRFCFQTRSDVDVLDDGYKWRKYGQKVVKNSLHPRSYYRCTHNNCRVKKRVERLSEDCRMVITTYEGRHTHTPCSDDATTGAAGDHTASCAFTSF
# The other results are listed elsewhere or left out.
# Target: OsWRKY34 (Oryza sativa, UniProt Q0JBA9 1-250)
# Assay: protein-binding microarray (RPBM); PBS, 2% BSA, 51.3 ng/ul salmon testes DNA, 50 uM zinc acetate, 200 nM TF, 25 C, 1 h; high values mean tight binding
# Conditions: protein: recombinant; tags: N-terminal polyhistidine and DsRed monomer fusion (pET32a); label: CyDye5-dUTP incorporated in the synthesized complementary strand; 3' TTTTT single-stranded linker to array surface; dsDNA, one strand shown
# Summary of the method: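 The binding signal is fluorescence intensity per array feature (arbitrary units). Readings came from an Axon 4000B scanner after a washed, 2% BSA-blocked, double-stranded custom Agilent array had been incubated for 1 h at 25 °C with 200 nM protein and 50 µM zinc acetate. The protein was a Ni–NTA-purified transcription factor fused N-terminally to polyhistidine and DsRed, expressed in E. coli BL21-CodonPlus.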
row,Sequence,binding signal
1,AACGCTCCCAAGCTACCACGTGGCCTCCTACAAACTCTCACGGAGTCACCTAGTGCAG,9540 fluorescence intensity (a.u.)
2,AATCTATCGTTAGCAAATGTTTACTGTAGCACAATATTGTCGGAGTCACCTAGTGCAG,8110 fluorescence intensity (a.u.)
3,ATATGCCGACAATGATTTTTTTTATTTTGGTGTTGCTATACGGAGTCACCTAGTGCAG,8820 fluorescence intensity (a.u.)
4,TCCTCTCCACGCCGTCTAGTCTCGTCTCGTCTCGCCGACCCGGAGTCACCTAGTGCAG,10200 fluorescence intensity (a.u.)
5,GAACGATACCTTGGCTAACTCCCGCACTTCCTTGCTTGGTCGGAGTCACCTAGTGCAG,12400 fluorescence intensity (a.u.)
6,TTACAAAACTTTTAGGTATGATTTTCACGAGTTTTCAACACGGAGTCACCTAGTGCAG,8390 fluorescence intensity (a.u.)
7,GACAGTTCCGCTGTTCCGTGTCCGTTTCACCTGGAGTAGTCGGAGTCACCTAGTGCAG,8860 fluorescence intensity (a.u.)
8,AGGGAGTATATTTGCAACGGTTTTGGAAATTAGGGGCGGGCGGAGTCACCTAGTGCAG,11700 fluorescence intensity (a.u.)
9,CACCGTACCTCGCCATATCGTCAAGCAGCAGTGCTAACTACGGAGTCACCTAGTGCAG,9120 fluorescence intensity (a.u.)
10,TTTTTGTACTGTTAATTAGCTTTCATACCGTTTTTGTAAGCGGAGTCACCTAGTGCAG,9410 fluorescence intensity (a.u.)
11,CGATCGCAAAAAAGAAAAAAAAAACAATTTCCTTTTGGGGCGGAGTCACCTAGTGCAG,8310 fluorescence intensity (a.u.)
12,AACCACTTCTCCACCTGTGTCAGTTGCAAACCATTGATCTCGGAGTCACCTAGTGCAG,9210 fluorescence intensity (a.u.)
13,GTATACTTTCTCCATCCCATAAAAAACCATGGTACTATATCGGAGTCACCTAGTGCAG,8400 fluorescence intensity (a.u.)
14,TTGCGCTTCTAGCTCCAATATCTCGGTCTTCTTGTCCTCCCGGAGTCACCTAGTGCAG,8290 fluorescence intensity (a.u.)
15,TTTTTTCGGTGTTTTTCTTTTTGTTTCTTTTCGCTTCGCTCGGAGTCACCTAGTGCAG,12700 fluorescence intensity (a.u.)
16,TCGTCGGCGTCGCGTTCACGGCCGCCGTGGCCGTGGCCGTCGGAGTCACCTAGTGCAG,16500 fluorescence intensity (a.u.)
17,CATTTGATCGTTCGTTTTATTTGAATTATTTTATGATTAACGGAGTCACCTAGTGCAG,9280 fluorescence intensity (a.u.)
18,CCACCGTGATTTTCGCTCCCATCACCGCGCGAGGACTCCGCGGAGTCACCTAGTGCAG,10900 fluorescence intensity (a.u.)
19,ATTCGTTCATTTTTTCTATGGCATATTTTTTTATGGTAAACGGAGTCACCTAGTGCAG,9480 fluorescence intensity (a.u.)
20,CGCCACTACAAATACCACCACCTCGATCGTCGCCGCCGCGCGGAGTCACCTAGTGCAG,10800 fluorescence intensity (a.u.)
21,AAGACATTTTGGTCCAATTTGACCGATCTGCTGGTCACTGCGGAGTCACCTAGTGCAG,8110 fluorescence intensity (a.u.)

row,Sequence,binding signal
1,AAGGTCAAACCGGGTCAGGTTGTTTGATGACGTGGCTTATCGGAGTCACCTAGTGCAG,8850 fluorescence intensity (a.u.)
2,TCGGATTTGGGGAGGTGTTATACCTGGTTTTATGGCTGAGCGGAGTCACCTAGTGCAG,14700 fluorescence intensity (a.u.)
3,TCACCAAACATATCGATCCATCCCTCTACCAGTCAAGAAACGGAGTCACCTAGTGCAG,8990 fluorescence intensity (a.u.)
4,GTTTTAATGGTTAGAGGGGTCGATGTAAACGTTTTTGCCGCGGAGTCACCTAGTGCAG,9250 fluorescence intensity (a.u.)
5,TCTTATGTGCTTGCTTGCTACGTCCGGAGTCCCTGGACTACGGAGTCACCTAGTGCAG,9840 fluorescence intensity (a.u.)
6,CCACCACTGTGGCGCCTGACACAGCTCACACCTTTGACGACGGAGTCACCTAGTGCAG,8480 fluorescence intensity (a.u.)
7,CCATGCTTGCTTTCCTGATTTCTTAATTCGCATCATTTCGCGGAGTCACCTAGTGCAG,9870 fluorescence intensity (a.u.)
8,ATACGACACTCCATATACACTGTAGTGACCATATAAGTTACGGAGTCACCTAGTGCAG,8100 fluorescence intensity (a.u.)
9,AATCGTCGTGCCATGTTCGATCCTCGTCTCTCGTCGCAGACGGAGTCACCTAGTGCAG,11800 fluorescence intensity (a.u.)
10,CATGCAATCATCAGAAACGGCATCGCAACAGCACAGCACCCGGAGTCACCTAGTGCAG,8080 fluorescence intensity (a.u.)
11,CGTGCGATTTGGGTTTGGGGCGTGCAATCATCATGATGCGCGGAGTCACCTAGTGCAG,9920 fluorescence intensity (a.u.)
12,CTTTTTTCTGCTTCCTTTTTCTGTTTGCGAAATTCGATGTCGGAGTCACCTAGTGCAG,11500 fluorescence intensity (a.u.)
13,TCCTACACACATAAATTTCTAATTTTTCCGTCACATCGTTCGGAGTCACCTAGTGCAG,8130 fluorescence intensity (a.u.)
14,TTTTTCTGTACGAAAACCCCTATCTTTCACACATCTTTTACGGAGTCACCTAGTGCAG,8280 fluorescence intensity (a.u.)
15,ACTTATTCCACCCGTGAGGCCGTGACGCTACTGCGCGGCCCGGAGTCACCTAGTGCAG,8090 fluorescence intensity (a.u.)
16,CATATTCAATTAGTGTGAGATTATATTTCTACGTTTTTTTCGGAGTCACCTAGTGCAG,9560 fluorescence intensity (a.u.)
17,GTTGTCCTGCCTTCGCCGCCAAGTTGCGCCGCCACCATCGCGGAGTCACCTAGTGCAG,8220 fluorescence intensity (a.u.)
18,TGTGCCAAATTTTTTTTTTATATACGGATGCACATTTGAACGGAGTCACCTAGTGCAG,8390 fluorescence intensity (a.u.)
19,CCACCTCTCTCTCTCTCTCTCCCACGCCACGCCACGCCACCGGAGTCACCTAGTGCAG,8140 fluorescence intensity (a.u.)
20,TGCACATCTTCAGTATACTCGTGGCATCAATTATCTTCTCCGGAGTCACCTAGTGCAG,9380 fluorescence intensity (a.u.)
21,CAAGGTTTGCCTCCACCTCTCTTGCATTTCCTATTCTCTCCGGAGTCACCTAGTGCAG,9600 fluorescence intensity (a.u.)

row,Sequence,binding signal
1,CATTTATTGTAGTTTAGACCATCTTACCTTTCTTCTATAGCGGAGTCACCTAGTGCAG,8100 fluorescence intensity (a.u.)
2,AGATTTGACTATCCTGCTGGAATCCGGTAACAATTTTTCACGGAGTCACCTAGTGCAG,9560 fluorescence intensity (a.u.)
3,CATTCACATCACTTATTTTGCTTCTGCTATGCTACGCCATCGGAGTCACCTAGTGCAG,8180 fluorescence intensity (a.u.)
4,CTCCTCAGCTAGTTGCTTGTCCCACACCACATCTTTCTTTCGGAGTCACCTAGTGCAG,12900 fluorescence intensity (a.u.)
5,GGGTTTTTTTTATCAAAGTTAATTTTTCAGCTTGTGCTTTCGGAGTCACCTAGTGCAG,10400 fluorescence intensity (a.u.)
6,CTAACCAATCTCTCATTCTCTCTACCAACTCGACCAACCTCGGAGTCACCTAGTGCAG,9960 fluorescence intensity (a.u.)
7,CCATGGTTTTTTGCGCCCAGTTTTGACCGTTCGTCTTATTCGGAGTCACCTAGTGCAG,13000 fluorescence intensity (a.u.)
8,AGGGTTTCCGGCGGGGAGGGAAAGGTCTGGTATTTTTCTGCGGAGTCACCTAGTGCAG,13800 fluorescence intensity (a.u.)
9,AGAACTCTACTGTACGTACTAATCGCTGTCGAACTATAGTCGGAGTCACCTAGTGCAG,9210 fluorescence intensity (a.u.)
10,GTCACCACCGCTCTGGTCCTTGCCCGCATGCCACCGTCAACGGAGTCACCTAGTGCAG,11400 fluorescence intensity (a.u.)
11,TAGCATATCATACTCCCTCCGTCACATTTTAACTGCAGCCCGGAGTCACCTAGTGCAG,8210 fluorescence intensity (a.u.)
12,GGAGACTGAGTATGATAGGTGGGGCCATTTTCGTTTTTGCCGGAGTCACCTAGTGCAG,8920 fluorescence intensity (a.u.)
13,GTTGTCACCATTGTCCATGTGCTTAACTTGAAGAAAGTCTCGGAGTCACCTAGTGCAG,8310 fluorescence intensity (a.u.)
14,CGCCGTGTCGCAGTTCATCCTGACTAGCTTCACTTCAGAACGGAGTCACCTAGTGCAG,9460 fluorescence intensity (a.u.)
15,GGATTTGTGTTTGTCCTTTTTCTTTTAGCTTTCTTGGCAGCGGAGTCACCTAGTGCAG,11100 fluorescence intensity (a.u.)
16,GTTTTTATACGGATAGCGGGACTACCCACTTGCATCCCTACGGAGTCACCTAGTGCAG,8360 fluorescence intensity (a.u.)
17,CCACCTGATCTTCGTTGTACCTGGGGTTGGCTGCAGCAACCGGAGTCACCTAGTGCAG,9840 fluorescence intensity (a.u.)
18,AAGTATTTCTCTCTCGTTCTGCTCTCTGTTCATCCTCTTCCGGAGTCACCTAGTGCAG,10800 fluorescence intensity (a.u.)
19,AGACCTGTCATAATCTTTATATTGATTCCATCTTCTTTTTCGGAGTCACCTAGTGCAG,8650 fluorescence intensity (a.u.)
20,TTCCTTCCTTTTCCACGCGACTCTCTCCTTCCGGCTTCCGCGGAGTCACCTAGTGCAG,9630 fluorescence intensity (a.u.)
21,TCCGGGGCTTTTTTGGCTGGCGTGTTCGCTTCCCGTGATACGGAGTCACCTAGTGCAG,9160 fluorescence intensity (a.u.)

# A portion of the results above:
row,Sequence,binding signal
5,GGGTTTTTTTTATCAAAGTTAATTTTTCAGCTTGTGCTTTCGGAGTCACCTAGTGCAG,10400 fluorescence intensity (a.u.)
6,CTAACCAATCTCTCATTCTCTCTACCAACTCGACCAACCTCGGAGTCACCTAGTGCAG,9960 fluorescence intensity (a.u.)
7,CCATGGTTTTTTGCGCCCAGTTTTGACCGTTCGTCTTATTCGGAGTCACCTAGTGCAG,13000 fluorescence intensity (a.u.)
8,AGGGTTTCCGGCGGGGAGGGAAAGGTCTGGTATTTTTCTGCGGAGTCACCTAGTGCAG,13800 fluorescence intensity (a.u.)

# The list continues:

row,Sequence,binding signal
1,AGCTCTTTTTATTTTTCTATTTTTAGTTTTTTGCCTTTTTCGGAGTCACCTAGTGCAG,13500 fluorescence intensity (a.u.)
2,CGTCGTTTCGCAACTCCCTCACTTTTATCGCGCCGTTGATCGGAGTCACCTAGTGCAG,9080 fluorescence intensity (a.u.)
3,AACCTCCTGCAGCAGAGCCCCGATGTCGTCCACCAGTTCTCGGAGTCACCTAGTGCAG,9620 fluorescence intensity (a.u.)
4,AACCATCATGACCGGCTACCACTAAGCTGCGCCTGTCTACCGGAGTCACCTAGTGCAG,8700 fluorescence intensity (a.u.)
5,GTGACCCGCGGCGACTTCCCCGACGGCTTCGTCTTCGGCGCGGAGTCACCTAGTGCAG,10400 fluorescence intensity (a.u.)
6,ACATTATTTGCTGGGTCTAATCGTACTGACAGATACTCTGCGGAGTCACCTAGTGCAG,8370 fluorescence intensity (a.u.)
7,CTTTTCTTTTCCTTTATTTTTTTCTTTTCTTTTTTTTTATCGGAGTCACCTAGTGCAG,9580 fluorescence intensity (a.u.)
8,CTTGTAATGTCAGTTTGTGGCTTATTTACATTGCATTTTTCGGAGTCACCTAGTGCAG,10600 fluorescence intensity (a.u.)
9,CTGTGCACGCGGAAACTCGGTGATCTTGATTTATAACCTGCGGAGTCACCTAGTGCAG,8160 fluorescence intensity (a.u.)
10,GTCATCCGGGTCCAATTGCCATCACCACTCTCCAACATTTCGGAGTCACCTAGTGCAG,12500 fluorescence intensity (a.u.)
11,TCTGTCAAAGTTGTTTCACCCACCATGCAATTTACCCATTCGGAGTCACCTAGTGCAG,9370 fluorescence intensity (a.u.)
12,TTGTTCTTCATTTACACAGAAAGATATATGTTGCTTTCTTCGGAGTCACCTAGTGCAG,8260 fluorescence intensity (a.u.)
13,GCCCATGCCTACCTGCTGCTGTGCCTTCTTCCTATTGAATCGGAGTCACCTAGTGCAG,9950 fluorescence intensity (a.u.)
14,TACCCACACCGATCTGCCGCTGCCCAGTTCCACCTACTTTCGGAGTCACCTAGTGCAG,16800 fluorescence intensity (a.u.)
15,ATTGGTAGTATGTCCATCTTCTTCTTTTTTTGCCGGTTAACGGAGTCACCTAGTGCAG,8960 fluorescence intensity (a.u.)
16,CCCTTCTCCGGCCTCTCCGTGCTTTGCTGTTCTTTGCTTTCGGAGTCACCTAGTGCAG,9220 fluorescence intensity (a.u.)
17,CTCCGGATCCGCACACCTCCTGTTAATCCGCCGATTCTTCCGGAGTCACCTAGTGCAG,10800 fluorescence intensity (a.u.)
18,TAATGATGCACAATATATCTTTCAGATTCTACTGCTGTACCGGAGTCACCTAGTGCAG,8380 fluorescence intensity (a.u.)
19,CACCAACCCTATGGAGCAGTTCGTCGACGCCCTCATCCAGCGGAGTCACCTAGTGCAG,8700 fluorescence intensity (a.u.)
20,TCTGGTTCCCAGGGGCGTGTGATGTTGTAGTAGTATTTCTCGGAGTCACCTAGTGCAG,9380 fluorescence intensity (a.u.)
21,TGCTTCCGGCGGCATTACCTCCTCGTCCTCGTCCGACTCCCGGAGTCACCTAGTGCAG,10400 fluorescence intensity (a.u.)
